## Percent effect of library compounds

Sequences of proteins named here, by UniProt entry; tags and fusion partners are left off. Residues count along the entry.
UniProt P9WFT3, whole entry: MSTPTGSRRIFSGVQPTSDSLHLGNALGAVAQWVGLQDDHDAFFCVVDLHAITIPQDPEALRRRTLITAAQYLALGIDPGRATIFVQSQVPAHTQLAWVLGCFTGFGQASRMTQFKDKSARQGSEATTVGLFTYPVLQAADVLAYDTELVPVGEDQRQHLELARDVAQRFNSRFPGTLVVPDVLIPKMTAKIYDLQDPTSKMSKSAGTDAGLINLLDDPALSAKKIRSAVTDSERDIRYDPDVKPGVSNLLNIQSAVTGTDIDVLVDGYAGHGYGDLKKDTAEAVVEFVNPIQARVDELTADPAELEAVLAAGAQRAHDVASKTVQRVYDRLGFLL
UniProt A4I591, 1-473: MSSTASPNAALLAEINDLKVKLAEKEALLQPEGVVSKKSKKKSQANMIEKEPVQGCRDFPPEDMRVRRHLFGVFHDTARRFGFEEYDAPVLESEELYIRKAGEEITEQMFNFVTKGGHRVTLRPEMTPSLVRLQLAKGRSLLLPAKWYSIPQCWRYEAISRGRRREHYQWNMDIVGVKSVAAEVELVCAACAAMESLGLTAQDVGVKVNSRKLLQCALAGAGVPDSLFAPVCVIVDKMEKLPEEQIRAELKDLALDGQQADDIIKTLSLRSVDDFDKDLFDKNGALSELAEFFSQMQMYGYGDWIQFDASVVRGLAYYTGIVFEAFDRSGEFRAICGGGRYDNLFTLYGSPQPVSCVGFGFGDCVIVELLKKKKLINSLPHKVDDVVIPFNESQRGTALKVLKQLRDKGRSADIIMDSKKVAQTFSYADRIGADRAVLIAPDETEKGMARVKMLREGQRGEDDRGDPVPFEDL

The values are deposited in ChEMBL (CHEMBL3988442, “University of Dundee, Small-Polar-MMV Screening Library” (2021)).

MtTrpRS: 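Enzyme assay of tryptophanyl-tRNA synthetase; the read-out is not stated. Target: Tryptophan-tRNA ligase, Mycobacterium tuberculosis (UniProt P9WFT3). Compounds at 10 µM. Higher most likely means stronger inhibition; the record gives no direction and few retests gave an IC50. Size under these conditions: about 65,000 compounds, about 64 of them at 50% or above in at least one test.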
LiHisRS: 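Enzyme assay of histidyl-tRNA synthetase; the read-out is not stated. Target: Histidine-tRNA ligase, Leishmania infantum (UniProt A4I591). Compounds at 30 µM. Direction is inferred from retests: higher values go with stronger inhibition. The assay is labelled LdHisRS but filed under L. infantum. Size under these conditions: about 69,000 compounds, about 410 of them at 50% or above in at least one test.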

Results are given as percent effect.
How 0% and 100% were set is not recorded. Most values in the screen are low, and negative values occur.
Compounds were drawn at random from those tested, without regard to their results.
A dash means the value is not listed here; it may have been measured.

| compound | MtTrpRS | LiHisRS |
|---|---|---|
| `c1cnc(N2CCC3(COCCN(CC4CC4)C3)C2)nc1` (stereo unspecified) | -0.6711 | 11.76 |
| `O=C(O)CC1CN(S(=O)(=O)c2cccc(F)c2)c2ccccc21` (stereo unspecified) | 7.808 | 8.475 |
| `COc1cc(CN2CCCC(Nc3cccc(F)c3)C2)cc(OC)c1O` (stereo unspecified) | -2.902 | 13.11 |
| `CC(C)(C)C(=O)N1CCC(n2nc(-c3ccco3)ccc2=O)CC1` | - | 5.208 |
| `Cc1cc(C(=O)NCC2COCc3c(C)nnn3C2)no1` (stereo unspecified) | -0.08285 | 12.26 |
| `Fc1ccc(CNc2ccccc2Cn2cncn2)cc1` | -1.816 | 3.509 |
| `CCn1ccnc1CN(C)c1cc(N(C)C)ncn1` | -2.252 | 15.38 |
| `CCCc1nc(CN(CC)Cc2ccc(O)c(C(=O)O)c2)no1` | 5.078 | 8.861 |
| `O=C(CCc1nc2cccnc2[nH]1)NCc1ccncc1` | 1.19 | 21.05 |
| `CN(Cc1cc(C[C@@H]2C[C@H](N)C2(C)C)no1)c1ccccc1` | -3.238 | 27.78 |
| `CCn1nnnc1-c1cccc(NCc2nc(C)ccc2O)c1` | -6.588 | 19.28 |
| `FC(F)(F)c1ccc2nc([C@H]3CCN(C4CCOCC4)C3)[nH]c2c1` | -2.937 | 5.556 |
| `O=C(c1ncc[nH]1)N1CCC(Cn2cc(-c3cccc(Cl)c3)nn2)CC1` | 4.103 | 15.05 |
| `COc1c(CNCCNC(=O)c2cccc(C)c2)c(C)nn1C` | 1.358 | 7.273 |
| `CC(C)NC(=O)c1ccc2c(c1)C(c1nc[nH]n1)CN2S(C)(=O)=O` (stereo unspecified) | -9.455 | 15.15 |
| `CN(C)CC(=O)N1CCc2onc(Cn3cccn3)c2C1` | -3.836 | 7.273 |
| `Cc1noc(C)c1CN(C)C(=O)C1CCN(S(N)(=O)=O)CC1` | -4.369 | 10 |
| `CC(C)CN1CCC(NC(=O)c2ccc(F)cc2F)CC1` | -0.6365 | 3.704 |
| `Cc1noc(C)c1CN1C[C@@H]2CCCO[C@@H]2[C@H](Nc2ccccn2)C1` | 1.724 | 19.44 |
| `Cc1nccnc1N1CC[C@@H](NC(=O)c2cnccn2)[C@H](O)C1` | -0.6966 | 19.23 |
| `CCN(CC)c1ccc(NS(=O)(=O)c2cncc(F)c2)cn1` | 1.398 | 19.05 |
| `CCOc1ccc(-n2nc(C)c(CC(C)=O)c2C)cc1C(N)=O` | -5.57 | 38.67 |
| `CC(NC(=O)NCc1ccccc1Cl)c1ccccn1` (stereo unspecified) | 15.28 | 17.09 |
| `Cc1noc(C)c1CC(=O)N1CCCC(c2noc(C(C)C)n2)C1` (stereo unspecified) | -1.636 | 11.69 |
| `Cc1ccc(C)c(CS(=O)(=O)CC(=O)N(C)Cc2cccc(F)c2)c1` | -3.809 | 5.556 |
| `CC(C)(C)n1cc(C(=O)O)c(-c2ccc(F)cc2F)n1` | -6.454 | -4 |
| `COc1ccc(CN2C[C@@H](CN(C)C)[C@@H](CO)C2)c(Cl)c1OC` | 0.4691 | 16.53 |
| `Cc1c(C(=O)N2CCCC(n3cccn3)C2)nnn1-c1ccccc1` (stereo unspecified) | -2.443 | 12.07 |
| `COc1ncccc1CN1CCC2(CC1)COCCN2C` | 3.776 | 10.34 |
| `Cc1ccn(-c2cncc(C(N)=O)c2)n1` | -0.4515 | 22.4 |
| `O=C(c1ccccn1)N1CCCC2(CCN(c3ccsc3)C2=O)C1` (stereo unspecified) | 7.891 | -1.754 |
| `Cc1ccccc1CS(=O)(=O)CC(=O)N(C)Cc1cccc(F)c1` | -3.659 | 7.143 |
| `O=C(CCn1ncc2c(Cl)cccc21)NCCCO` | 0.2591 | 17.24 |
| `Cc1nnc(CN2CCN(CC(O)c3cccc(F)c3)CC2)n1C` (stereo unspecified) | -0.2346 | 10.67 |
| `Cn1cccc1CN1CCC2(CC1)CN(c1ncccn1)CCO2` | -7.149 | 17.81 |
| `CCOc1ccc(Cl)cc1NC(=O)N1CCC(n2cncn2)CC1` | 1.374 | 11.39 |
| `Cc1ccc(S(=O)(=O)NC(=O)COc2cccc(C(N)=O)c2)s1` | 1.146 | 10.17 |
| `Cc1cc(C(=O)CN2CCN(c3cnccn3)CC2)c(C)n1C(C)C` | 0.7698 | 16.48 |
| `CC(C)(C)c1coc([C@@H]2COCCN2Cc2c[nH]cn2)n1` | -2.517 | 18.92 |
| `Cc1cnc(CN(C)C2CCN(Cc3nc4ccccc4s3)C2)o1` (stereo unspecified) | 3.397 | 17.24 |
| `CC(C)(C)c1ccc(CN2C[C@H]3C[C@H](O)C[C@H]3C2)c(OCC(N)=O)c1` | -2.488 | 17.39 |

The last 5 entries again:

| compound | MtTrpRS | LiHisRS |
|---|---|---|
| `Cc1ccc(S(=O)(=O)NC(=O)COc2cccc(C(N)=O)c2)s1` | 1.146 | 10.17 |
| `Cc1cc(C(=O)CN2CCN(c3cnccn3)CC2)c(C)n1C(C)C` | 0.7698 | 16.48 |
| `CC(C)(C)c1coc([C@@H]2COCCN2Cc2c[nH]cn2)n1` | -2.517 | 18.92 |
| `Cc1cnc(CN(C)C2CCN(Cc3nc4ccccc4s3)C2)o1` (stereo unspecified) | 3.397 | 17.24 |
| `CC(C)(C)c1ccc(CN2C[C@H]3C[C@H](O)C[C@H]3C2)c(OCC(N)=O)c1` | -2.488 | 17.39 |